What all share (assay): cross-linking; CD-MS: DSS delivered by 70DSS-DDAB@PLGA/Kolliphor EL nanoparticles (1.8 mg/mL in medium, 6 h, 37 °C, 5% CO2) to the mitochondria of living HepG2 cells; proteins extracted and digested (i-FASP, trypsin), 30 high-pH RPLC fractions, LC-MS/MS, cross-linked peptides identified with pLink 2.0 against MitoCarta3.0 (FDR 1% at the spectrum level)
Test [1] has as its target COX7C (human (endogenous in HepG2)) (UniProt P15954).
For test [2], the target named is NDUFS5 (human (endogenous in HepG2)) (UniProt O43920).
Test [3] deals with NDUFB3 (human (endogenous in HepG2)) (UniProt O43676).
Test [4] deals with T1, pyruvate dehydrogenase E1 component subunit α (PDHA1) (human (endogenous in HepG2)) (UniProt P08559).
T1 sequence: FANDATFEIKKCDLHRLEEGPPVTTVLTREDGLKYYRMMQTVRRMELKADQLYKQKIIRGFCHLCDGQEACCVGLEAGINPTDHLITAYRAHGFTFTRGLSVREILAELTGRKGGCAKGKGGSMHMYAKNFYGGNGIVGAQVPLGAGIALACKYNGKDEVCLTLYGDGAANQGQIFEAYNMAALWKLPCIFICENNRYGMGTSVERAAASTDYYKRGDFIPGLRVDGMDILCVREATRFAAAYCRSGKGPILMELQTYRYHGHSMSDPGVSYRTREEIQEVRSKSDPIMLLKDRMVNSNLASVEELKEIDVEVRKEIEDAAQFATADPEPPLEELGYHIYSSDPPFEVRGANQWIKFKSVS

The chains behind the UniProt entries cited, without tags or fusion partners. Residues count along the entry.
UniProt P15954, residues 17-63: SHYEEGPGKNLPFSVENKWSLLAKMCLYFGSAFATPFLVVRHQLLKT
UniProt O43920: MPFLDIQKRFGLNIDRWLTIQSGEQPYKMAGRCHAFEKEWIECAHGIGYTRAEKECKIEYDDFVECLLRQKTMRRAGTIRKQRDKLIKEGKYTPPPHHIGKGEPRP
UniProt O43676: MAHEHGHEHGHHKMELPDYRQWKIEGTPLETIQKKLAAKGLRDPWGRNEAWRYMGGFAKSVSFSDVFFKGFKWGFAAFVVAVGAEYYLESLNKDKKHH
UniProt P10809, residues 27-573: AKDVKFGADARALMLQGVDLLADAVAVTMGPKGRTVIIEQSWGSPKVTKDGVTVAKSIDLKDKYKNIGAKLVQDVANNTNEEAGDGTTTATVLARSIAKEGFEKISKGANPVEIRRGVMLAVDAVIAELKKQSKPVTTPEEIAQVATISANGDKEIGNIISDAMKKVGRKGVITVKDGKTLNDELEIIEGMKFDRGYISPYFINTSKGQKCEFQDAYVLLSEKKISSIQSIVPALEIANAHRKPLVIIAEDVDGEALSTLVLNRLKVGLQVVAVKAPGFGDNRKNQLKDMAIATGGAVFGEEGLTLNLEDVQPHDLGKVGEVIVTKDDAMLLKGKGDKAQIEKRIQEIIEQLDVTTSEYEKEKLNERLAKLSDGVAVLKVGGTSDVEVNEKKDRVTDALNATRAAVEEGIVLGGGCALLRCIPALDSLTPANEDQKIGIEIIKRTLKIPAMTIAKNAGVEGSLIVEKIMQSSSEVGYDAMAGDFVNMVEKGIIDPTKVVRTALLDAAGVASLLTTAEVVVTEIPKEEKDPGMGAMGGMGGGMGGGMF
UniProt P14406, residues 24-83: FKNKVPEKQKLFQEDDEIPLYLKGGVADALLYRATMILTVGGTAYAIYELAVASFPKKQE

Test [5] has as its target citrin (SLC25A13) (human (endogenous in HepG2)) (UniProt Q9UJS0).
For test [6], the target named is T2, succinate dehydrogenase [ubiquinone] iron-sulfur subunit (SDHB) (human (endogenous in HepG2)) (UniProt P21912).
T2 sequence: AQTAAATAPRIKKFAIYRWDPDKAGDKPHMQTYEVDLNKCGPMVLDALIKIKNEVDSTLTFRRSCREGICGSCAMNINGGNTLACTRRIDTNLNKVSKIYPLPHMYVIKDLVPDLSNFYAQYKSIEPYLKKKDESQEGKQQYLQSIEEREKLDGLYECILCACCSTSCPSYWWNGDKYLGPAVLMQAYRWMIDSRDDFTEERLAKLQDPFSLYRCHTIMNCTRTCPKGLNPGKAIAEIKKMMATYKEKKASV

Results are given in words; binding and its absence hold for the method and conditions named. Binding seen in cells or lysates may run through a third protein. Some results given as binding are weak or reduced against the parent protein; the word gives no strength.

Consider HSPD1 (from UniProt P10809 27-573), for which the binding result in test [1] and in test [2] was “binds” throughout. As for COX7A2 (from UniProt P14406 24-83), the binding result in test [3] was “binds”.

B1: 2-oxoglutarate dehydrogenase-like (OGDHL) (protein, UniProt Q9ULD0 74-1010)
chain: FREASEEAFSGSAQPRPPSVVHESRSAVSSRTKTSKLVEDHLAVQSLIRAYQIRGHHVAQLDPLGILDADLDSFVPSDLITTIDKLAFYDLQEADLDKEFQLPTTTFIGGSENTLSLREIIRRLENTYCQHIGLEFMFINDVEQCQWIRQKFETPGVMQFSSEEKRTLLARLVRSMRFEDFLARKWSSEKRFGLEGCEVMIPALKTIIDKSSEMGIENVILGMPHRGRLNVLANVIRKDLEQIFCQFDPKLEAADEGSGDVKYHLGMYHERINRVTNRNITLSLVANPSHLEAVDPVVQGKTKAEQFYRGDAQGKKVMSILVHGDAAFAGQGVVYETFHLSDLPSYTTNGTVHVVVNNQIGFTTDPRMARSSPYPTDVARVVNAPIFHVNADDPEAVIYVCSVAAEWRNTFNKDVVVDLVCYRRRGHNEMDEPMFTQPLMYKQIHRQVPVLKKYADKLIAEGTVTLQEFEEEIAKYDRICEEAYGRSKDKKILHIKHWLDSPWPGFFNVDGEPKSMTCPATGIPEDMLTHIGSVASSVPLEDFKIHTGLSRILRGRADMTKNRTVDWALAEYMAFGSLLKEGIHVRLSGQDVERGTFSHRHHVLHDQEVDRRTCVPMNHLWPDQAPYTVCNSSLSEYGVLGFELGYAMASPNALVLWEAQFGDFHNTAQCIIDQFISTGQAKWVRHNGIVLLLPHGMEGMGPEHSSARPERFLQMSNDDSDAYPAFTKDFEVSQLYDCNWIVVNCSTPANYFHVLRRQILLPFRKPLIIFTPKSLLRHPEAKSSFDQMVSGTSFQRVIPEDGAAARAPEQVQRLIFCTGKVYYDLVKERSSQDLEEKVAITRLEQISPFPFDLIKQEAEKYPGAELAWCQEEHKNMGYYDYISPRFMTILRRARPIWYVGRDPAAAPATGNRNTHLVSLKKFLDTAFNLQAFEGKTF
Regarding B1, in test [4], the binding result was “binds”.

B2: citrin (SLC25A13) (protein, UniProt Q9UJS0 1-675)
chain: MAAAKVALTKRADPAELRTIFLKYASIEKNGEFFMSPNDFVTRYLNIFGESQPNPKTVELLSGVVDQTKDGLISFQEFVAFESVLCAPDALFMVAFQLFDKAGKGEVTFEDVKQVFGQTTIHQHIPFNWDSEFVQLHFGKERKRHLTYAEFTQFLLEIQLEHAKQAFVQRDNARTGRVTAIDFRDIMVTIRPHVLTPFVEECLVAAAGGTTSHQVSFSYFNGFNSLLNNMELIRKIYSTLAGTRKDVEVTKEEFVLAAQKFGQVTPMEVDILFQLADLYEPRGRMTLADIERIAPLEEGTLPFNLAEAQRQKASGDSARPVLLQVAESAYRFGLGSVAGAVGATAVYPIDLVKTRMQNQRSTGSFVGELMYKNSFDCFKKVLRYEGFFGLYRGLLPQLLGVAPEKAIKLTVNDFVRDKFMHKDGSVPLAAEILAGGCAGGSQVIFTNPLEIVKIRLQVAGEITTGPRVSALSVVRDLGFFGIYKGAKACFLRDIPFSAIYFPCYAHVKASFANEDGQVSPGSLLLAGAIAGMPAASLVTPADVIKTRLQVAARAGQTTYSGVIDCFRKILREEGPKALWKGAGARVFRSSPQFGVTLLTYELLQRWFYIDFGGVKPMGSEPVPKSRINLPAPNPDHVGGYKLAVATFAGIENKFGLYLPLFKPSVSTSKAIGGGP
As to B2, the binding result in test [5] is recorded as “binds”.

B3: succinate dehydrogenase cytochrome b560 subunit (SDHC) (protein, UniProt Q99643 30-169)
chain: LGTTAKEEMERFWNKNIGSNRPLSPHITIYSWSLPMAMSICHRGTGIALSAGVSLFGMSALLLPGNFESYLELVKSLCLGPALIHTAKFALVFPLMYHTWNGIRHLMWDLGKGLKIPQLYQSGVVVLVLTVLSSMGLAAM
Regarding B3, the binding result in test [6] is “binds”.

(Values after paper PMC10313818.)
